# Data: the supplement of paper PMC8728848
# The list shows a part of the results.
# B1: SrpA (Streptococcus sanguis) (protein)
# chain: SSKSESTVNSQSASSETNRSSTNNGSTSSSSETARVRKRRATDTTPPTITVPSDIIAYRGEEFEFYFEITDDSGQVKNIELSTFGKPLGLNWLEYSEDNFNVPGNATSDNPLRVRVHGTVPLNEPIPADKNRAQFTRTIRAWDAAGNVSSNITFVIKYRAQTDKYNPADPTITYVDRLSSLSPSEKNAVEAAVRAANPQIPAAARITVSANGTVTITYPDSSTDTITANRVVKDLASSRSALT
# Experiments:
# Test in all cases: glycan array binding signal (z-score within array); higher = stronger binding
# Details in all cases: glycan notation: IUPAC condensed, linker removed
# [1] = target: Fuc(a1-2)Gal
# Summary of the method: (§1)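 Arrays were curated from the Consortium for Functional Glycomics database, 3228 in total, and kept only where the protein sequence was available. Binding is expressed as a within-array Z-score. This score was averaged across arrays of the same protein sequence at different concentrations or buffers and across linkers, and negative values can be read as non-binding.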
# [2] = target: Fuc(a1-2)Gal(b1-3)GalNAc
# Summary of the method: as §1
# [3] = target: Fuc(a1-2)Gal(b1-3)GalNAc(b1-3)Gal
# Summary of the method: as §1
# [4] = target: Fuc(a1-2)Gal(b1-3)GalNAc(b1-3)Gal(a1-4)Gal(b1-4)Glc
# Summary of the method: as §1
# [5] = target: Fuc(a1-2)Gal(b1-3)GalNAc(b1-4)[Neu5Ac(a2-3)]Gal(b1-4)Glc
# Summary of the method: as §1
# [6] = target: Fuc(a1-2)Gal(b1-3)GlcNAc
# Summary of the method: as §1
# [7] = target: Fuc(a1-2)Gal(b1-3)GlcNAc(b1-3)Gal(b1-4)Glc
# Summary of the method: as §1
# [8] = target: Fuc(a1-2)Gal(b1-3)[Fuc(a1-4)]GlcNAc
# Summary of the method: as §1
# [9] = target: Fuc(a1-2)Gal(b1-4)Glc
# Summary of the method: as §1
# [10] = target: Fuc(a1-2)Gal(b1-4)Glc6S
# Summary of the method: as §1
# [11] = target: Fuc(a1-2)Gal(b1-4)GlcNAc
# Summary of the method: as §1
# [12] = target: Fuc(a1-2)Gal(b1-4)GlcNAc(b1-3)Gal(b1-4)GlcNAc
# Summary of the method: as §1
# [13] = target: Fuc(a1-2)Gal(b1-4)GlcNAc(b1-3)Gal(b1-4)GlcNAc(b1-3)Gal(b1-4)GlcNAc
# Summary of the method: as §1
# [14] = target: Fuc(a1-2)Gal(b1-4)GlcNAc6S
# Summary of the method: as §1
# [15] = target: Fuc(a1-2)Gal(b1-4)[Fuc(a1-3)]GlcNAc
# Summary of the method: as §1
# [16] = target: Fuc(a1-2)Gal(b1-4)[Fuc(a1-3)]GlcNAc(b1-3)Gal(b1-4)[Fuc(a1-3)]GlcNAc
# Summary of the method: as §1
# [17] = target: Fuc(a1-2)Gal(b1-4)[Fuc(a1-3)]GlcNAc(b1-3)Gal(b1-4)[Fuc(a1-3)]GlcNAc(b1-3)Gal(b1-4)[Fuc(a1-3)]GlcNAc
# Summary of the method: as §1
# [18] = target: Fuc(a1-2)Gal6S(b1-4)Glc
# Summary of the method: as §1
# [19] = target: Fuc(a1-2)Gal6S(b1-4)Glc6S
# Summary of the method: as §1
# [20] = target: Fuc(a1-2)Gal6S(b1-4)GlcNAc
# Summary of the method: as §1
# [21] = target: Fuc(a1-2)[Gal(a1-3)]Gal
# Summary of the method: as §1
# [22] = target: Fuc(a1-2)[Gal(a1-3)]Gal(b1-3)GlcNAc
# Summary of the method: as §1
# [23] = target: Fuc(a1-2)[Gal(a1-3)]Gal(b1-4)Glc
# Summary of the method: as §1
# [24] = target: Fuc(a1-2)[Gal(a1-3)]Gal(b1-4)GlcNAc
# Summary of the method: as §1
# [25] = target: Fuc(a1-2)[Gal(a1-3)]Gal(b1-4)[Fuc(a1-3)]GlcNAc
# Summary of the method: as §1
# [26] = target: Fuc(a1-2)[Gal(a1-4)]Gal(b1-4)GlcNAc
# Summary of the method: as §1
# [27] = target: Fuc(a1-2)[GalNAc(a1-3)]Gal
# Summary of the method: as §1
# [28] = target: Fuc(a1-2)[GalNAc(a1-3)]Gal(b1-3)GlcNAc
# Summary of the method: as §1
# [29] = target: Fuc(a1-2)[GalNAc(a1-3)]Gal(b1-4)Glc
# Summary of the method: as §1
# [30] = target: Fuc(a1-2)[GalNAc(a1-3)]Gal(b1-4)GlcNAc
# Summary of the method: as §1
# [31] = target: Fuc(a1-2)[GalNAc(a1-3)]Gal(b1-4)[Fuc(a1-3)]GlcNAc
# Summary of the method: as §1
# [32] = target: Fuc(a1-2)[GalNAc(a1-4)]Gal(b1-4)GlcNAc
# Summary of the method: as §1
# [33] = target: Fuc(a1-2)[GalNAc(b1-3)]Gal
# Summary of the method: as §1
# [34] = target: Fuc(a1-3)GlcNAc
# Summary of the method: as §1
# [35] = target: Fuc(a1-3)[Gal(b1-4)]Glc6S
# Summary of the method: as §1
# [36] = target: Fuc(a1-3)[Gal(b1-4)]GlcNAc
# Summary of the method: as §1
# [37] = target: Fuc(a1-3)[Gal(b1-4)]GlcNAc(b1-3)Gal(b1-3)[Fuc(a1-4)]GlcNAc
# Summary of the method: as §1
# [38] = target: Fuc(a1-3)[Gal(b1-4)]GlcNAc(b1-4)Gal(b1-4)[Fuc(a1-3)]GlcNAc
# Summary of the method: as §1
# [39] = target: Fuc(a1-3)[Gal(b1-4)]GlcNAc(b1-4)Gal(b1-4)[Fuc(a1-3)]GlcNAc(b1-4)Gal(b1-4)[Fuc(a1-3)]GlcNAc
# Summary of the method: as §1
# [40] = target: Fuc(a1-3)[Gal(b1-4)]GlcNAc6S
# Summary of the method: as §1
# [41] = target: Fuc(a1-3)[Gal3S(b1-4)]Glc6S
# Summary of the method: as §1
# [42] = target: Fuc(a1-3)[Gal3S(b1-4)]GlcNAc
# Summary of the method: as §1
# [43] = target: Fuc(a1-3)[Gal3S(b1-4)]GlcNAc6S
# Summary of the method: as §1
# [44] = target: Fuc(a1-3)[GalNAc(b1-4)]GlcNAc
# Summary of the method: as §1
# [45] = target: Fuc(a1-4)GlcNAc
# Summary of the method: as §1
binder,measurement,setting,value
B1,glycan array binding signal (z-score),[1],0.466
same,glycan array binding signal (z-score),[2],0.015
same,glycan array binding signal (z-score),[3],0.055
same,glycan array binding signal (z-score),[4],-0.361
same,glycan array binding signal (z-score),[5],-0.359
same,glycan array binding signal (z-score),[6],-0.658
same,glycan array binding signal (z-score),[7],-0.548
same,glycan array binding signal (z-score),[8],-0.701
same,glycan array binding signal (z-score),[9],-0.111
same,glycan array binding signal (z-score),[10],-0.719
same,glycan array binding signal (z-score),[11],0.235
same,glycan array binding signal (z-score),[12],-0.109
same,glycan array binding signal (z-score),[13],2.25
same,glycan array binding signal (z-score),[14],-0.657
same,glycan array binding signal (z-score),[15],0.445
same,glycan array binding signal (z-score),[16],-0.422
same,glycan array binding signal (z-score),[17],0.173
same,glycan array binding signal (z-score),[18],-0.532
same,glycan array binding signal (z-score),[19],-0.486
same,glycan array binding signal (z-score),[20],0.042
same,glycan array binding signal (z-score),[21],0.762
same,glycan array binding signal (z-score),[22],-0.652
same,glycan array binding signal (z-score),[23],-0.758
same,glycan array binding signal (z-score),[24],0.089
same,glycan array binding signal (z-score),[25],-0.042
same,glycan array binding signal (z-score),[26],-0.029
same,glycan array binding signal (z-score),[27],1.11
same,glycan array binding signal (z-score),[28],0.203
same,glycan array binding signal (z-score),[29],-0.436
same,glycan array binding signal (z-score),[30],-0.075
same,glycan array binding signal (z-score),[31],-0.341
same,glycan array binding signal (z-score),[32],1.31
same,glycan array binding signal (z-score),[33],-0.463
same,glycan array binding signal (z-score),[34],0.064
same,glycan array binding signal (z-score),[35],0.486
same,glycan array binding signal (z-score),[36],-0.299
same,glycan array binding signal (z-score),[37],-0.157
same,glycan array binding signal (z-score),[38],1.24
same,glycan array binding signal (z-score),[39],-0.758
same,glycan array binding signal (z-score),[40],0.652
same,glycan array binding signal (z-score),[41],1.34
same,glycan array binding signal (z-score),[42],0.403
same,glycan array binding signal (z-score),[43],1.06
same,glycan array binding signal (z-score),[44],-0.159
same,glycan array binding signal (z-score),[45],-0.454

# Retrieved one by one from the entries so far, two records:
binder,measurement,setting,value
B1,glycan array binding signal (z-score),[29],-0.436
same,glycan array binding signal (z-score),[13],2.25
